The results in this text go back to publication PMC11233639.

Chains of the proteins cited; added tags and fusions are not shown. Residues count along the entry.
UniProt P14618, residues 14-531: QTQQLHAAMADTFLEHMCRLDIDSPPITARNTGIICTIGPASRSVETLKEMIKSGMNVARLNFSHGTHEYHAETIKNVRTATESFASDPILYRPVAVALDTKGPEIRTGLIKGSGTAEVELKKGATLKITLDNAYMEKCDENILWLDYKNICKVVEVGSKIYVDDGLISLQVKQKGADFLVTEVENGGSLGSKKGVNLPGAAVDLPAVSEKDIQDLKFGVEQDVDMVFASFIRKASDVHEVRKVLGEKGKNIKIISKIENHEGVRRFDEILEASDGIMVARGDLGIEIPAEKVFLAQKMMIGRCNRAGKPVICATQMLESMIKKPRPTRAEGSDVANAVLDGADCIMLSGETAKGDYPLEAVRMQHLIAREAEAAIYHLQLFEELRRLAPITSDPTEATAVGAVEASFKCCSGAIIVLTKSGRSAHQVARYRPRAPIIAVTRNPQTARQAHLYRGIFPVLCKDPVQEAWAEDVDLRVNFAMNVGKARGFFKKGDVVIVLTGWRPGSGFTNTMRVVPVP
UniProt P04406: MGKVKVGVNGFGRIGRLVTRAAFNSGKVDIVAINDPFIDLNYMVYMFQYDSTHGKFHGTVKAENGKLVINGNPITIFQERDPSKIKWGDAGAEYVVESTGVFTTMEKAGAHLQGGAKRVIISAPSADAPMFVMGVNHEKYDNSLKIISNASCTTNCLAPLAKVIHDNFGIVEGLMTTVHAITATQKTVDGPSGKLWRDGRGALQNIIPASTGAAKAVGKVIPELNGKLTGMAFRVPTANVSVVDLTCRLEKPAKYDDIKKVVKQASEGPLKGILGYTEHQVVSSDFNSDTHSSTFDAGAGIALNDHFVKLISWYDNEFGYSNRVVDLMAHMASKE
UniProt P06733: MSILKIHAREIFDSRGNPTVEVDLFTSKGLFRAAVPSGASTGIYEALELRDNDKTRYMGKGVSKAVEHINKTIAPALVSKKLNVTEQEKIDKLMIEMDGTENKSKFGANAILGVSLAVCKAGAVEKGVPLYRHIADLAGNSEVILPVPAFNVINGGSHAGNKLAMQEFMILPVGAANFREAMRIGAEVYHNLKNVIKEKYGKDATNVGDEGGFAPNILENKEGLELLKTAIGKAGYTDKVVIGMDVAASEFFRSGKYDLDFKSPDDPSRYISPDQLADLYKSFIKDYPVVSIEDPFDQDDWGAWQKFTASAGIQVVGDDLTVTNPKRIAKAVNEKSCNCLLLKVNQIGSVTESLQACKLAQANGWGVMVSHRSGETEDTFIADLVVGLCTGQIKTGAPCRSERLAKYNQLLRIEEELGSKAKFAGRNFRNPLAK

No constants are given. Whether binding was seen depends on the method and setting. Some results given as binding are weak or reduced against the parent protein; the word gives no strength.

B1: HK2 (enzyme, UniProt P52789 1-917)
chain: MIASHLLAYFFTELNHDQVQKVDQYLYHMRLSDETLLEISKRFRKEMEKGLGATTHPTAAVKMLPTFVRSTPDGTEHGEFLALDLGGTNFRVLWVKVTDNGLQKVEMENQIYAIPEDIMRGSGTQLFDHIAECLANFMDKLQIKDKKLPLGFTFSFPCHQTKLDESFLVSWTKGFKSSGVEGRDVVALIRKAIQRRGDFDIDIVAVVNDTVGTMMTCGYDDHNCEIGLIVGTGSNACYMEEMRHIDMVEGDEGRMCINMEWGAFGDDGSLNDIRTEFDQEIDMGSLNPGKQLFEKMISGMYMGELVRLILVKMAKEELLFGGKLSPELLNTGRFETKDISDIEGEKDGIRKAREVLMRLGLDPTQEDCVATHRICQIVSTRSASLCAATLAAVLQRIKENKGEERLRSTIGVDGSVYKKHPHFAKRLHKTVRRLVPGCDVRFLRSEDGSGKGAAMVTAVAYRLADQHRARQKTLEHLQLSHDQLLEVKRRMKVEMERGLSKETHASAPVKMLPTYVCATPDGTEKGDFLALDLGGTNFRVLLVRVRNGKWGGVEMHNKIYAIPQEVMHGTGDELFDHIVQCIADFLEYMGMKGVSLPLGFTFSFPCQQNSLDESILLKWTKGFKASGCEGEDVVTLLKEAIHRREEFDLDVVAVVNDTVGTMMTCGFEDPHCEVGLIVGTGSNACYMEEMRNVELVEGEEGRMCVNMEWGAFGDNGCLDDFRTEFDVAVDELSLNPGKQRFEKMISGMYLGEIVRNILIDFTKRGLLFRGRISERLKTRGIFETKFLSQIESDCLALLQVRAILQHLGLESTCDDSIIVKEVCTVVARRAAQLCGAGMAAVVDRIRENRGLDALKVTVGVDGTLYKLHPHFAKVMHETVKDLAPKCDVSFLQSEDGSGKGAALITAVACRIREAGQR
B2: PFKP (enzyme, UniProt Q01813 1-784)
chain: MDADDSRAPKGSLRKFLEHLSGAGKAIGVLTSGGDAQGMNAAVRAVVRMGIYVGAKVYFIYEGYQGMVDGGSNIAEADWESVSSILQVGGTIIGSARCQAFRTREGRLKAACNLLQRGITNLCVIGGDGSLTGANLFRKEWSGLLEELARNGQIDKEAVQKYAYLNVVGMVGSIDNDFCGTDMTIGTDSALHRIIEVVDAIMTTAQSHQRTFVLEVMGRHCGYLALVSALACGADWVFLPESPPEEGWEEQMCVKLSENRARKKRLNIIIVAEGAIDTQNKPITSEKIKELVVTQLGYDTRVTILGHVQRGGTPSAFDRILASRMGVEAVIALLEATPDTPACVVSLNGNHAVRLPLMECVQMTQDVQKAMDERRFQDAVRLRGRSFAGNLNTYKRLAIKLPDDQIPKTNCNVAVINVGAPAAGMNAAVRSAVRVGIADGHRMLAIYDGFDGFAKGQIKEIGWTDVGGWTGQGGSILGTKRVLPGKYLEEIATQMRTHSINALLIIGGFEAYLGLLELSAAREKHEEFCVPMVMVPATVSNNVPGSDFSIGADTALNTITDTCDRIKQSASGTKRRVFIIETMGGYCGYLANMGGLAAGADAAYIFEEPFDIRDLQSNVEHLTEKMKTTIQRGLVLRNESCSENYTTDFIYQLYSEEGKGVFDCRKNVLGHMQQGGAPSPFDRNFGTKISARAMEWITAKLKEARGRGKKFTTDDSICVLGISKRNVIFQPVAELKKQTDFEHRIPKEQWWLKLRPLMKILAKYKASYDVSDSGQLEHVQPWSV

For this experiment, the target named is sfcherry-PKM2 (Pyruvate Kinase M2) (UniProt P14618). As to the kind of experiment: FACS sorting of fluorescent aggregates with immunoblotting; sfcherry-PKM2 aggregates isolated from HeLa lysate as for the MS analysis; immunoblotting of PKM2 and of proteins with high abundance in the MS results. Background: A western blot detects proteins with antibodies after separation by electrophoresis.
Take “Glyceraldehyde-3-phosphate dehydrogenase (GAPDH) (from UniProt P04406 1-335) (enzyme)”: the binding entry is “binds”.

As to “α-Enolase (ENO1) (from UniProt P06733 1-434) (enzyme)”, the binding result was “binds”.

For B1, the binding entry is listed as “no binding”.

As to B2, the binding entry is listed as “binds”.
